Experimental data: publication PMC4534575, “The RNA Helicase DHX34 Activates NMD by Promoting a Transition from the Surveillance to the Decay-Inducing Complex” (Cell Reports, 2014)

The chains behind the UniProt entries cited, without tags or fusion partners.
UniProt P38919: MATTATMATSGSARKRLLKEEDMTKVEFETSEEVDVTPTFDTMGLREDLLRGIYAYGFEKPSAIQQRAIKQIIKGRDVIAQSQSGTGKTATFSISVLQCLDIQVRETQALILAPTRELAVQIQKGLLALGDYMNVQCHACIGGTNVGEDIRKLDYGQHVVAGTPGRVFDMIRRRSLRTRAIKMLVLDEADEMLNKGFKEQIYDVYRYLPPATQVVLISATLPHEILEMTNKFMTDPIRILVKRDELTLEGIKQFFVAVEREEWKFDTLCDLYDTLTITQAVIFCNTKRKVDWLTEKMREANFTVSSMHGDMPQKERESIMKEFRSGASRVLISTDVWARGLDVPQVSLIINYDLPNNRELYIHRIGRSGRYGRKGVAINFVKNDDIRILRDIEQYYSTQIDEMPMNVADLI
UniProt Q09161: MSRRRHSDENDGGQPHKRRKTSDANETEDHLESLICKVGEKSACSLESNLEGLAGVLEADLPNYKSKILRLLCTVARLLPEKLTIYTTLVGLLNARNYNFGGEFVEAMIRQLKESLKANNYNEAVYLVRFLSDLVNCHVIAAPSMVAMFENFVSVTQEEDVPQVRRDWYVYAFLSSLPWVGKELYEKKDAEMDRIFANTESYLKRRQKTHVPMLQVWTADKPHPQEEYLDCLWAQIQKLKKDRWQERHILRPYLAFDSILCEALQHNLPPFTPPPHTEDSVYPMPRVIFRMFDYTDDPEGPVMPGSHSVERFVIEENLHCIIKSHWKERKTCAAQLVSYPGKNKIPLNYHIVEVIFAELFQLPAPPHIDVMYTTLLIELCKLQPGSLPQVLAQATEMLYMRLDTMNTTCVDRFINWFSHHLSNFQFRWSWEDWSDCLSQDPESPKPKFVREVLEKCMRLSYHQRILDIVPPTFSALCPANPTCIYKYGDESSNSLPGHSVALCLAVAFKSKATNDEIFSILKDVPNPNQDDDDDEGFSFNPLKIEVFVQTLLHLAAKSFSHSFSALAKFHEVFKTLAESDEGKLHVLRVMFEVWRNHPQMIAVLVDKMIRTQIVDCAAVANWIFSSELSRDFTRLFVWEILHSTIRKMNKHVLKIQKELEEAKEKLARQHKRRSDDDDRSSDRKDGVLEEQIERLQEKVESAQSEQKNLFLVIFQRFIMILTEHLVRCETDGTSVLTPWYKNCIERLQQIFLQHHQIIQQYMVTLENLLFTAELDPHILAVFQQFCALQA

T1: endogenous DHX34 (human (endogenous in HEK293T)) (UniProt Q14147)
T1 sequence: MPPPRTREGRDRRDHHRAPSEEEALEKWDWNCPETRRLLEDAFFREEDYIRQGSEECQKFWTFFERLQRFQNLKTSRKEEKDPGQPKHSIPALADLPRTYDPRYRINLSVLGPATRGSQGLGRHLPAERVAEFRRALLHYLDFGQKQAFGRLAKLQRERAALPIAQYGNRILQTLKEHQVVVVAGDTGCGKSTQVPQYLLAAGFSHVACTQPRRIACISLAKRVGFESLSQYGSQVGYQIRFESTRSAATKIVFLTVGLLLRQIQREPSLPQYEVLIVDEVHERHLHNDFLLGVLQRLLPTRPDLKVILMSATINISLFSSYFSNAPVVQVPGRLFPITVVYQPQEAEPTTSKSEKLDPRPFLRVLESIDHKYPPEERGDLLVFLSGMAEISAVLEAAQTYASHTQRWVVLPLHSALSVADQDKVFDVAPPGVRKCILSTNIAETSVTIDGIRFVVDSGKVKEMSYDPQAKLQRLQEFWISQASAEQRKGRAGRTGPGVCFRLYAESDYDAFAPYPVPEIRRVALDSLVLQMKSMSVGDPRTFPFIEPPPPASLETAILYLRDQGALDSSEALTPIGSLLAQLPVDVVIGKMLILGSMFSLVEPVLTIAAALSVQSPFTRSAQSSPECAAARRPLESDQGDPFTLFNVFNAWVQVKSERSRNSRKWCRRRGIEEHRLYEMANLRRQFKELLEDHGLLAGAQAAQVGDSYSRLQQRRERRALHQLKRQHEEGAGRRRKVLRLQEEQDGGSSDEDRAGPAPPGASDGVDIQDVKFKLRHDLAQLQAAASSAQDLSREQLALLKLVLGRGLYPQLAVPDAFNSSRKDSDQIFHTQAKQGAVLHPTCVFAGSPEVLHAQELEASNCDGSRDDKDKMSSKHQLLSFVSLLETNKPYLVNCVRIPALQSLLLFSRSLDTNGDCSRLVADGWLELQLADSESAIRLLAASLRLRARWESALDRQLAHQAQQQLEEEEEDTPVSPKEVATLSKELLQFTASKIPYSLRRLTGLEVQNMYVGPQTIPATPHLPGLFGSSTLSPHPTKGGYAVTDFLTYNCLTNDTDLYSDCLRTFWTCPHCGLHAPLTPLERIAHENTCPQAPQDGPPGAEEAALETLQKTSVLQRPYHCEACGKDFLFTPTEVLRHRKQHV

B1: endogenous UPF1 (protein, UniProt Q92900 1-1129)
chain: MSVEAYGPSSQTLTFLDTEEAELLGADTQGSEFEFTDFTLPSQTQTPPGGPGGPGGGGAGGPGGAGAGAAAGQLDAQVGPEGILQNGAVDDSVAKTSQLLAELNFEEDEEDTYYTKDLPIHACSYCGIHDPACVVYCNTSKKWFCNGRGNTSGSHIVNHLVRAKCKEVTLHKDGPLGETVLECYNCGCRNVFLLGFIPAKADSVVVLLCRQPCASQSSLKDINWDSSQWQPLIQDRCFLSWLVKIPSEQEQLRARQITAQQINKLEELWKENPSATLEDLEKPGVDEEPQHVLLRYEDAYQYQNIFGPLVKLEADYDKKLKESQTQDNITVRWDLGLNKKRIAYFTLPKTDSGNEDLVIIWLRDMRLMQGDEICLRYKGDLAPLWKGIGHVIKVPDNYGDEIAIELRSSVGAPVEVTHNFQVDFVWKSTSFDRMQSALKTFAVDETSVSGYIYHKLLGHEVEDVIIKCQLPKRFTAQGLPDLNHSQVYAVKTVLQRPLSLIQGPPGTGKTVTSATIVYHLARQGNGPVLVCAPSNIAVDQLTEKIHQTGLKVVRLCAKSREAIDSPVSFLALHNQIRNMDSMPELQKLQQLKDETGELSSADEKRYRALKRTAERELLMNADVICCTCVGAGDPRLAKMQFRSILIDESTQATEPECMVPVVLGAKQLILVGDHCQLGPVVMCKKAAKAGLSQSLFERLVVLGIRPIRLQVQYRMHPALSAFPSNIFYEGSLQNGVTAADRVKKGFDFQWPQPDKPMFFYVTQGQEEIASSGTSYLNRTEAANVEKITTKLLKAGAKPDQIGIITPYEGQRSYLVQYMQFSGSLHTKLYQEVEIASVDAFQGREKDFIILSCVRANEHQGIGFLNDPRRLNVALTRARYGVIIVGNPKALSKQPLWNHLLNYYKEQKVLVEGPLNNLRESLMQFSKPRKLVNTINPGARFMTTAMYDAREAIIPGSVYDRSSQGRPSSMYFQTHDQIGMISAGPSHVAAMNIPIPFNLVMPPMPPPGYFGQANGPAAGRGTPKGKTGRGGRQKNRFGLPGPSQTNLPNSQASQDVASQPFSQGALTQGYISMSQPSQMSQPGLSQPELSQDSYLGDEFKSQIDVALSQDSTYQGERAYQHGGVTGLSQY
B2: RNA helicase MOV10 (protein, UniProt Q9HCE1 1-1003)
chain: MPSKFSCRQLREAGQCFESFLVVRGLDMETDRERLRTIYNRDFKISFGTPAPGFSSMLYGMKIANLAYVTKTRVRFFRLDRWADVRFPEKRRMKLGSDISKHHKSLLAKIFYDRAEYLHGKHGVDVEVQGPHEARDGQLLIRLDLNRKEVLTLRLRNGGTQSVTLTHLFPLCRTPQFAFYNEDQELPCPLGPGECYELHVHCKTSFVGYFPATVLWELLGPGESGSEGAGTFYIARFLAAVAHSPLAAQLKPMTPFKRTRITGNPVVTNRIEEGERPDRAKGYDLELSMALGTYYPPPRLRQLLPMLLQGTSIFTAPKEIAEIKAQLETALKWRNYEVKLRLLLHLEELQMEHDIRHYDLESVPMTWDPVDQNPRLLTLEVPGVTESRPSVLRGDHLFALLSSETHQEDPITYKGFVHKVELDRVKLSFSMSLLSRFVDGLTFKVNFTFNRQPLRVQHRALELTGRWLLWPMLFPVAPRDVPLLPSDVKLKLYDRSLESNPEQLQAMRHIVTGTTRPAPYIIFGPPGTGKTVTLVEAIKQVVKHLPKAHILACAPSNSGADLLCQRLRVHLPSSIYRLLAPSRDIRMVPEDIKPCCNWDAKKGEYVFPAKKKLQEYRVLITTLITAGRLVSAQFPIDHFTHIFIDEAGHCMEPESLVAIAGLMEVKETGDPGGQLVLAGDPRQLGPVLRSPLTQKHGLGYSLLERLLTYNSLYKKGPDGYDPQFITKLLRNYRSHPTILDIPNQLYYEGELQACADVVDRERFCRWAGLPRQGFPIIFHGVMGKDEREGNSPSFFNPEEAATVTSYLKLLLAPSSKKGKARLSPRSVGVISPYRKQVEKIRYCITKLDRELRGLDDIKDLKVGSVEEFQGQERSVILISTVRSSQSFVQLDLDFNLGFLKNPKRFNVAVTRAKALLIIVGNPLLLGHDPDWKVFLEFCKENGGYTGCPFPAKLDLQQGQNLLQGLSKLSPSTSGPHSHDYLPQEREGEGGLSLQVEPEWRNEL
B3: 5' to 3' exonuclease XRN2 (protein, UniProt Q9H0D6 1-950)
chain: MGVPAFFRWLSRKYPSIIVNCVEEKPKECNGVKIPVDASKPNPNDVEFDNLYLDMNGIIHPCTHPEDKPAPKNEDEMMVAIFEYIDRLFSIVRPRRLLYMAIDGVAPRAKMNQQRSRRFRASKEGMEAAVEKQRVREEILAKGGFLPPEEIKERFDSNCITPGTEFMDNLAKCLRYYIADRLNNDPGWKNLTVILSDASAPGEGEHKIMDYIRRQRAQPNHDPNTHHCLCGADADLIMLGLATHEPNFTIIREEFKPNKPKPCGLCNQFGHEVKDCEGLPREKKGKHDELADSLPCAEGEFIFLRLNVLREYLERELTMASLPFTFDVERSIDDWVFMCFFVGNDFLPHLPSLEIRENAIDRLVNIYKNVVHKTGGYLTESGYVNLQRVQMIMLAVGEVEDSIFKKRKDDEDSFRRRQKEKRKRMKRDQPAFTPSGILTPHALGSRNSPGSQVASNPRQAAYEMRMQNNSSPSISPNTSFTSDGSPSPLGGIKRKAEDSDSEPEPEDNVRLWEAGWKQRYYKNKFDVDAADEKFRRKVVQSYVEGLCWVLRYYYQGCASWKWYYPFHYAPFASDFEGIADMPSDFEKGTKPFKPLEQLMGVFPAASGNFLPPSWRKLMSDPDSSIIDFYPEDFAIDLNGKKYAWQGVALLPFVDERRLRAALEEVYPDLTPEETRRNSLGGDVLFVGKHHPLHDFILELYQTGSTEPVEVPPELCHGIQGKFSLDEEAILPDQIVCSPVPMLRDLTQNTVVSINFKDPQFAEDYIFKAVMLPGARKPAAVLKPSDWEKSSNGRQWKPQLGFNRDRRPVHLDQAAFRTLGHVMPRGSGTGIYSNAAPPPVTYQGNLYRPLLRGQAQIPKLMSNMRPQDSWRGPPPLFQQQRFDRGVGAEPLLPWNRMLQTQNAAFQPNQYQMLAGPGGYPPRRDDRGGRQGYPREGRKYPLPPPSGRYNWN

The molecules below were run against T1, endogenous DHX34 (human (endogenous in HEK293T)) (assay: affinity purification with mass spectrometry; endogenous DHX34 immunopurified from HEK293T cells, in the absence of RNases; preimmune serum as control; nLC-MS/MS).

binding, binds:
EJC component eIF4A3 (from UniProt P38919 1-411)
mRNA Cap-binding protein CBP80 (from UniProt Q09161 1-790)
B1
B2
B3

Results are given in words; binding and its absence hold for the method and conditions named. In cells and extracts the contact can be indirect. Here binding means that the protein was enriched with, or labelled near, the bait; the list need not be complete.
